Results as given in PubChem BioAssay AID1671189 (National Center for Advancing Translational Sciences (NCATS), 2021).
Shown are results outside the selection of hits, which stands elsewhere. Calls of active or inactive are those of the source. Calls come from the whole dose curve; as a rule, active = well fitted curve in the direction sought with a large enough effect; inconclusive = small, poorly fitted or top-dose-only effect, or another doubt; inactive = no such curve, though single readings can be large or run the other way.

By UniProt entry, the sequences of proteins in these tests, tags left out. Where a name states a change or a piece, a line headed by the entry shows the natural chain unless it says otherwise.
UniProt P18054: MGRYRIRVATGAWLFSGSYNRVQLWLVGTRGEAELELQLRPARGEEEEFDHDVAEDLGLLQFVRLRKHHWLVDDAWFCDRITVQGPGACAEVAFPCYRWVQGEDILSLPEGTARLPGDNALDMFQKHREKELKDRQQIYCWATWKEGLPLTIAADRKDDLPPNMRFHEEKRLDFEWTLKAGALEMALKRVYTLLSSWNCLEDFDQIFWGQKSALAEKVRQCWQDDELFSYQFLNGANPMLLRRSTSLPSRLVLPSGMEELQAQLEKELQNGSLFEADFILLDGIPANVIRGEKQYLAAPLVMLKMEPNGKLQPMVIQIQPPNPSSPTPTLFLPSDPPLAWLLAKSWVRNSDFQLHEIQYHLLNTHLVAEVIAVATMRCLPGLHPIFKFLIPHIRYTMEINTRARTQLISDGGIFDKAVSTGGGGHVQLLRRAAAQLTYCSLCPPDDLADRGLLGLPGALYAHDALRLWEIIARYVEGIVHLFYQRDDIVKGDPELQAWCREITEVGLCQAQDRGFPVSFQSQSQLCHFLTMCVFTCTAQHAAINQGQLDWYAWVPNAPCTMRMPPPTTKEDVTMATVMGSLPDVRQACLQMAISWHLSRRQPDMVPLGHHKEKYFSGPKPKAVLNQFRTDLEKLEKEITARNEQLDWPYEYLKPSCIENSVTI

biological target: Polyunsaturated fatty acid lipoxygenase ALOX12 (Homo sapiens) (UniProt P18054); test: Confirmatory qHTS assay for inhibitors of human arachidonate 12S-lipoxygenase (ALOX12): Round 2; conditions: purified human 12-LOX, xylenol orange absorbance; at 125 µM (top of the series)
Excerpt: Assay Provider: Theodore R. Holman Ph.D. University of California, Santa Cruz, California Human lipoxygenase 12hLO is a member of the closely related lipoxygenase family of enzymes which catalyze the site-specific oxidation of arachidonic acid to various hormone precursor molecules and as such is a candidate for drug development in a variety of disease areas, such as cancer and inflammation. Inhibition of 12hLO activity was screened by utilizing arachidonic acid as a substrate. The extent of hydroperoxide product formation was measured by a secondary chromogenic reaction in which xylenol orange (XO, Sigma-Aldrich, cat. number 39,818-7) reacts with the ferric ions produced from the reaction between the hydroperoxide and ferrous ions. The Fe (III)-XO complex is characterized with red-shifted absorbance at 560 nm. […]
PROTOCOL TABLE SEQUENCE No. (e.g., 1, 2, 3, etc.); […] […] 7; Incubation; 30 min; room temperature 8; Detector; absorbance; Read 1 at 405 nm absorbance using ViewLux (PerkinElmer) CCD imager. 9; Detector; absorbance; Read 2 at 573 nm absorbance using ViewLux (PerkinElmer) CCD imager. […] 8, 9; Two absorbance readouts were obtained at 405 nm and at 573 nm using a ViewLux high-throughput CCD plate imager (PerkinElmer). The 573 to 405 (Read 2 / Read 1) absorbance ratio was used to compute reaction progress.
% is set by controls: 0 for no effect and ±100 for the full control effect.

**Q.** Which activity change, negative = inhibition does the source give for `Nc1nc2ccc(OC(F)(F)F)cc2s1` here?
**A.** The activity change, negative = inhibition was inactive: -16.6%.
